Results are given in words; binding and its absence hold for the method and conditions named. Binding seen in cells or lysates may run through a third protein. Some entries that bind do so weakly or less than the wild type.

Chains of the proteins cited; added tags and fusions are not shown.
UniProt Q8WYB5: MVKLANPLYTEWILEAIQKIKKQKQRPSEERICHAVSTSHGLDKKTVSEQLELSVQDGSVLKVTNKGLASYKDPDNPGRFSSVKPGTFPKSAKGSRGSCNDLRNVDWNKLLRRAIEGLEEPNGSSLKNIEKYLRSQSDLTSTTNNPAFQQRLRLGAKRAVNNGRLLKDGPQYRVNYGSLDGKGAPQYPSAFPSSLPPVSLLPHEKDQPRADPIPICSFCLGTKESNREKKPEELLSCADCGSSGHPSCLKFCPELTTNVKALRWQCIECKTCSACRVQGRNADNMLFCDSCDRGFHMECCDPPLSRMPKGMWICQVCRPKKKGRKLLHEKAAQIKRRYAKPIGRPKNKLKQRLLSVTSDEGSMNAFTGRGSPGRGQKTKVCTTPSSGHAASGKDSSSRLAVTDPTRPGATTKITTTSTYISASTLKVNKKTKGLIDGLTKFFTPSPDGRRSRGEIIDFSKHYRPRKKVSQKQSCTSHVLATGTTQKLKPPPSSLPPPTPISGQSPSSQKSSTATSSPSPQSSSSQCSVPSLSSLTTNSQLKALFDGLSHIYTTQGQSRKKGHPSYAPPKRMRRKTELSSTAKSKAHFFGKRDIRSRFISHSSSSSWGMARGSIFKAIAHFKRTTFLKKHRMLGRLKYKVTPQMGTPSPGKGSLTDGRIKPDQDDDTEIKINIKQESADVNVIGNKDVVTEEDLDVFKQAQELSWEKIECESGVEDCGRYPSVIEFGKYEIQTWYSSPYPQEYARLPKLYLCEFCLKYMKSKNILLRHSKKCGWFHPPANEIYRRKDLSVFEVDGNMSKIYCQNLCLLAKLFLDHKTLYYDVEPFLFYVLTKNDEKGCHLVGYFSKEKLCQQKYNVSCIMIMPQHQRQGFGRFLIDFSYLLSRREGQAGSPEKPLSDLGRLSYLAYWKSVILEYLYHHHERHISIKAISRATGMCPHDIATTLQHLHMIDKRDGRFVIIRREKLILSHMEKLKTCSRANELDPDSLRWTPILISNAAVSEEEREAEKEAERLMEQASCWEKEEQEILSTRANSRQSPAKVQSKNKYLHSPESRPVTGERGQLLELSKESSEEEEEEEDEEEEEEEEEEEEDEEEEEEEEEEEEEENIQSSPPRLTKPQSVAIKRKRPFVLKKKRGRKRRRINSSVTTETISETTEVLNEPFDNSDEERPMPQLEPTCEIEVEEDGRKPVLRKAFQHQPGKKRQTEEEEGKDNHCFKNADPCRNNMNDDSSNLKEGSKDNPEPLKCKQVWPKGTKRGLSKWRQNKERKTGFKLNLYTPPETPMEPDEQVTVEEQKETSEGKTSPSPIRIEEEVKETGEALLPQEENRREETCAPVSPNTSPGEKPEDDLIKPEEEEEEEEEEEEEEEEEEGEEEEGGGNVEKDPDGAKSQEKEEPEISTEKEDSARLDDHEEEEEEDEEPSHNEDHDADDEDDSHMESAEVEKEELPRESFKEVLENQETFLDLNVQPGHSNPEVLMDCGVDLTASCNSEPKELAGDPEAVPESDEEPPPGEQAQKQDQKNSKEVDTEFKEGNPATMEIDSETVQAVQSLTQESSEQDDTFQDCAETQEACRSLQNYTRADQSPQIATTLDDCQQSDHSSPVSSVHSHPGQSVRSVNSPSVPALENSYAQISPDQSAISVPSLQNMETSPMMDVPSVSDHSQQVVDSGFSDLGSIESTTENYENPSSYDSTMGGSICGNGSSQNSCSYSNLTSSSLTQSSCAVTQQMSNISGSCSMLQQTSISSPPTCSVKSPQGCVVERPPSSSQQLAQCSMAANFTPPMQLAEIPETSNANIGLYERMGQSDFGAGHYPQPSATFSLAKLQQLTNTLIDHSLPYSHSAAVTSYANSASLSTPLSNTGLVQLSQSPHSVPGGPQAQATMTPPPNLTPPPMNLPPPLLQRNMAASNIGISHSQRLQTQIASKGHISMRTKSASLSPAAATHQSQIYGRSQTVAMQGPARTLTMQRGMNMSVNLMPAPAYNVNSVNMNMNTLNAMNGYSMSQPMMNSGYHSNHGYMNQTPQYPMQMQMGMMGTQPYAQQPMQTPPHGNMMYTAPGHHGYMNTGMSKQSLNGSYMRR
UniProt Q8WYH8: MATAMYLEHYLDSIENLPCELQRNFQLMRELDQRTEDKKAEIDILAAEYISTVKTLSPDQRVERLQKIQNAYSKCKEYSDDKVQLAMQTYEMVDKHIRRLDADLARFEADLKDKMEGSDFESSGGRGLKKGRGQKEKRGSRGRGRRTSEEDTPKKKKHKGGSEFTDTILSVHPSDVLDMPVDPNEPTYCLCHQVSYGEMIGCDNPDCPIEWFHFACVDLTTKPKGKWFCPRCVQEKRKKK
UniProt Q9UNL4: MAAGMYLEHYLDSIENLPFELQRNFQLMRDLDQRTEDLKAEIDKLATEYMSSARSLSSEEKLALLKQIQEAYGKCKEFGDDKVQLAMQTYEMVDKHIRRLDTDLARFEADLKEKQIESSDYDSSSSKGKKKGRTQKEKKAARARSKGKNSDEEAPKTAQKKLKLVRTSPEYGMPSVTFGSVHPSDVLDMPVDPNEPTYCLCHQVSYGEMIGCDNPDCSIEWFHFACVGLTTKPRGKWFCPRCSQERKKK
UniProt P55201: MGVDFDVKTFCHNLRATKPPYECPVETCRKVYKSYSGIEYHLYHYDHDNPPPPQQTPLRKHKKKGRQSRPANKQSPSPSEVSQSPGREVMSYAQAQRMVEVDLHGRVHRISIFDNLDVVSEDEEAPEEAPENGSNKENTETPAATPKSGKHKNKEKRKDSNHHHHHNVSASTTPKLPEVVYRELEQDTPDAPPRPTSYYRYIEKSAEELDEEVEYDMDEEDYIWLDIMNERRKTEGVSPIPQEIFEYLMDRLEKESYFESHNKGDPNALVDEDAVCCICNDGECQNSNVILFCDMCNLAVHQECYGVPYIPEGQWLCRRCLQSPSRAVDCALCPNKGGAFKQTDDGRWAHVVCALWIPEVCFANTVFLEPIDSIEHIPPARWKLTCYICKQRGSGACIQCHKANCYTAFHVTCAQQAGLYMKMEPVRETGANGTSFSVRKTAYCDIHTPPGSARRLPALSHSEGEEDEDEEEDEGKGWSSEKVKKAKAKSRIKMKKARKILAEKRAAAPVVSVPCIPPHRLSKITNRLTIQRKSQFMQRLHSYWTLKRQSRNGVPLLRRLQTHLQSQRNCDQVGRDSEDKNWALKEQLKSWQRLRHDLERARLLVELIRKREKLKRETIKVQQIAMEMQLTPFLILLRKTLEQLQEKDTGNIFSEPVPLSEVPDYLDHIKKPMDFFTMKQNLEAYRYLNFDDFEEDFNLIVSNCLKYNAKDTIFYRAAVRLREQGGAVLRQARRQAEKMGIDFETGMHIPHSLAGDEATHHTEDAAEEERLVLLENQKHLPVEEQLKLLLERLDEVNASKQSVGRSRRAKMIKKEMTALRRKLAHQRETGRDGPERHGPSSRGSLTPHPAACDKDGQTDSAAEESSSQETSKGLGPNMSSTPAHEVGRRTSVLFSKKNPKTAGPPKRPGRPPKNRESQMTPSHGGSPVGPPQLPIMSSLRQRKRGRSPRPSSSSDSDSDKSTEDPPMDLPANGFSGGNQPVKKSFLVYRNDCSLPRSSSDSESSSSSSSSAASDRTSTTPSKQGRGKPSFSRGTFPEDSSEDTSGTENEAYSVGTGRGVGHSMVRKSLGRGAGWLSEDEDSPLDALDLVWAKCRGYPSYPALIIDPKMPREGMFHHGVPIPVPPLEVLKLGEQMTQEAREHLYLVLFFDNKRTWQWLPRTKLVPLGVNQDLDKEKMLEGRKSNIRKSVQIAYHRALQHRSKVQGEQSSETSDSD

In the test the target is 3xFLAG-2xStrep-tagged MORF (full length), expressed from the AAVS1 locus in K562 cells (human) (UniProt Q8WYB5). Nature of the test: co-IP; tandem affinity purification (FLAG, then Strep) of 3xFLAG-2xStrep MORF from K562 nuclear extracts; Western blots with antibodies against MEAF6, ING5 and Brd1 (recognizes BRPF1 and BRPF2). On the technique in general: A western blot detects proteins with antibodies after separation by electrophoresis.
As to “ING5 (endogenous, K562) (from UniProt Q8WYH8 1-240)”, the binding entry was “binds”.
In the case of “ING4 (endogenous, K562) (from UniProt Q9UNL4 1-249)” it was “binds”; in that of “BRPF1 (endogenous, K562) (from UniProt P55201 1-1214)”, “binds”.

Values taken from paper PMC6797804, “Histone H3K23-specific acetylation by MORF is coupled to H3K14 acylation” (Nature Communications, 2019).
